{"source": "patent US20190256588A1", "binders": {"B1": {"name": "anti-human IL-17A chimeric monoclonal antibody (antibody, human IgG1, kappa, V domains shown)", "VH": "DVQVQESGPGLVKPSQSLSLTCTVTGNSITSYYAWNWIRQFPGNKLEWMGYITYSGTTSYNPSLKSRISITRDTSKNQFFLQLNSVTTEDTATYYCAREEYDDIYAVDYWGQGTSVTVSS", "VL": "IIVMTQTPLSLPVSLGDQASISCRSSQSLVHSNGNTYLHWYLQKPGQSPKLLIYKVYNRFSGVPDRFSGSGSGTDFTLKISRVEAEDLGVYFCSQSTHFPTFGGGTKLEIKR"}}, "key": {"[1]": {"biological_target": "recombinant human IL-1 (human)", "assay": "ELISA, cytokine coated on plate at 1 µg/mL"}, "[2]": {"biological_target": "recombinant monkey IL-17A (monkey)", "assay": "ELISA, cytokine coated on plate"}}, "note": "No constants are given. Whether binding was seen depends on the method and setting. For some assays here: A result given as binding can be weak or reduced; the word gives no strength."}
{"binder": "B1", "values": [{"measurement": "binding", "setting": "[1]", "value": "no binding"}, {"measurement": "binding", "setting": "[2]", "value": "binds"}]}
